From PubChem BioAssay AID504834 (National Center for Advancing Translational Sciences (NCATS), 2011)
Among all 320,000 compounds or so, about 22,000 (6.9%) were called active. Inconclusive means that the source gave no clear call. Such entries were picked first, then a sample of the others. The call rests on the fitted dose curve; in most records, active means well fitted inhibition curve with a large enough effect; inconclusive means small, poorly fitted or top-dose-only effect, or another doubt; inactive means no such curve, though single readings can be large or run the other way. Potencies of inconclusive entries are doubtful fits and often do not repeat.

Experiment: Primary qHTS for delayed death inhibitors of the malarial parasite plastid, 96 hour incubation
Conditions: P. falciparum luciferase reporter growth; series mostly up to 28.7 µM; activity change, negative = inhibition: at the top concentration
How it was run: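 Cell-based qHTS: luciferase-tagged P. falciparum in erythrocytes (2% hematocrit, 0.05% parasitemia final) incubated with compounds for 96 hours, 37 C, 5% CO2; luciferase detection reagent then added and luminescence measured.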
On the % scale 0 is the no-effect control and ±100 the full control effect; potency means the concentration at half of the fitted maximal effect.

SMILES | Potency | activity change, negative = inhibition
COc1ccc(NC(=S)NC(C)C(c2ccccc2)N2CCOCC2)cc1 (centres undefined) | active: 14.7 µM | 
COc1cc(NC(=O)CN2CCN(S(=O)(=O)/C=C/c3ccccc3)CC2)cc(OC)c1OC | inconclusive: 4.65 µM [inhibitor, partial curve, poor fit] | 
COc1cc2c(cc1OC)C(C(=O)NCCN(C)C)C(c1cccs1)N(C)C2=O (centres undefined) |  | inactive: -17.2%
CCc1ccccc1NC(=O)C1CCCN(c2ncccn2)C1 (centres undefined) |  | inactive: 3.73%
O=C(N/N=C/c1ccccc1Cl)c1ccncc1 |  | inactive: 3.18%
CN(Cc1ccccc1)C(=S)NC(=O)C1CCCCC1 | inconclusive: 18.5 µM [inhibitor, single point] | 
CCc1ccc(OC(=O)c2cccnc2)cc1 | inconclusive: 16.5 µM [inhibitor, single point] | 
CSCCC(NC(=O)c1cc(S(=O)(=O)N2CCOCC2)ccc1F)c1nc2ccccc2[nH]1 (centres undefined) | inconclusive: 13.1 µM [inhibitor, partial curve] | 
COc1cc(/C=N/NC(=O)c2[nH]nc3c2CCc2ccccc2-3)ccc1O | inconclusive: 0.0029 µM [inhibitor, full curve, poor fit] | 
O=C(CSc1nnc(NC(=O)c2ccccc2)s1)NCc1ccco1 |  | inactive: 186%
CCOC(=O)C1=C(COC(=O)COc2ccccc2C(C)C)NC(=O)NC1C (centres undefined) |  | inactive: 16%
CCN(C(=S)Nc1cc(S(=O)(=O)N2CCOCC2)ccc1Cl)c1cccc2ccccc12 | inconclusive: 5.22 µM [inhibitor, partial curve, poor fit] | 
COc1cc(S(=O)(=O)Nc2cccc3cn[nH]c23)c(OC)cc1Cl |  | inactive: -29.1%
Cc1cccc(C(=O)Nc2ccc(S(=O)(=O)Nc3nc(C)cc(C)n3)cc2)c1 | inconclusive: 10.4 µM [inhibitor, partial curve] | 
CCN(CC)S(=O)(=O)c1cccc(NC(=O)CNc2cccc(S(=O)(=O)N3CCOCC3)c2)c1 | inconclusive: 13.1 µM [inhibitor, partial curve] | 
CCn1c(C)cc2c(c1=O)C(c1ccccc1)C(C(=O)OC)=C(N)O2 (centres undefined) |  | inactive: 278%
C=CCc1ccc(OCCOCCOc2cccc3cccnc23)c(OC)c1 | inconclusive: 18.5 µM [inhibitor, single point] | 
COc1cc2c(cc1OC)C(C)N(C(=O)c1ccc(C)o1)CC2 (centres undefined) |  | inactive: -7.21%
CN(C)CCCN(C(=O)c1ccc(S(=O)(=O)N2CCc3ccccc3C2)cc1)c1nc2ccc(F)cc2s1 | inconclusive: 9.28 µM [inhibitor, single point] | 
Cc1cc2cc(CCNC(=O)CCc3ccccc3)c(=O)[nH]c2cc1C | inconclusive: 10.4 µM [inhibitor, partial curve] | 
COC(=O)c1ccc2c(=O)n(CCN3CCOCC3)c(SCC(=O)NCc3ccccc3)nc2c1 | inconclusive: 9.28 µM [inhibitor, single point] | 
CN(C)/C=C/C(=O)Oc1ccc(Cl)cc1Cl |  | inactive: 10.8%

Three entries picked at random from the list so far, as already listed:
SMILES | Potency | activity change, negative = inhibition
CCc1ccccc1NC(=O)C1CCCN(c2ncccn2)C1 (centres undefined) |  | inactive: 3.73%
CN(Cc1ccccc1)C(=S)NC(=O)C1CCCCC1 | inconclusive: 18.5 µM [inhibitor, single point] | 
COc1cc2c(cc1OC)C(C)N(C(=O)c1ccc(C)o1)CC2 (centres undefined) |  | inactive: -7.21%

Next entries

SMILES | Potency | activity change, negative = inhibition
CCCCCC(O)(c1ccc(OCC)cc1)C(CN1CCOCC1)c1ccccc1 (centres undefined) | inconclusive: 9.28 µM [inhibitor, single point] | 
CCN(CC)c1ccc(S(=O)(=O)N(CC)CC)cc1NC(=O)c1cccnc1 | inconclusive: 0.329 µM [inhibitor, full curve, poor fit] | 
CCCC1=C(C(=O)OCC)C(c2ccc(OC)c(CSc3ccccn3)c2)C(C#N)=C(N)O1 (centres undefined) | inconclusive: 11.7 µM [inhibitor, partial curve] | 
C/C(=N\NC(=O)CCC(=O)Nc1ccc(C)c(C)c1)c1cccs1 |  | inactive: 47.1%
COc1ccc(C(=O)O)cc1NS(=O)(=O)c1cccc2nsnc12 | inconclusive: 9.28 µM [inhibitor, partial curve, poor fit] | 
O=C(C1CCN(S(=O)(=O)c2cccc3nsnc23)CC1)N1CCCCC1 |  | inactive: 4.61%
CCOc1ccc(CCNC(=O)COc2cc(=O)n(C)c3ccccc23)cc1OCC | inconclusive: 18.5 µM [inhibitor, single point] | 
O=C(NCc1ccccn1)c1cccc(S(=O)(=O)N2CCCCC2)c1 | inconclusive: 0.104 µM [inhibitor, full curve, poor fit] | 
COc1ccc(S(=O)(=O)c2c(O)c3ccc(C(=O)Nc4ccc(F)cc4F)cc3[nH]c2=O)cc1 | inconclusive: 4.65 µM [inhibitor, partial curve] | 
Cc1ccc(-c2cc(C(=O)NCCCN3CCOCC3)c3ccccc3n2)cc1C | inconclusive: 5.22 µM [inhibitor, partial curve, poor fit] | 
COc1ncnc2c1cnn2-c1ccccc1 |  | inactive: 110%
CCCc1nc2ccccc2c(=O)n1CCc1ccccc1 | inconclusive: 9.28 µM [inhibitor, partial curve] | 
CC1CCC/C(=N\NC(=S)NCc2ccccc2)C1 (centres undefined) | inconclusive: 20.8 µM [inhibitor, partial curve, poor fit] | 
Cc1nnc(NC(=O)CSC2=NN3CCCC(=O)N=C3S2)s1 | inconclusive: 0.522 µM [inhibitor, full curve, poor fit] | 
N#Cc1cc2c(nc1SCC(=O)Nc1nccs1)CCCCC2 |  | inactive: 9.22%
O=C(Cc1ccc(F)cc1)N1CCC(CC2CC(c3ccc(Cl)cc3)=NO2)(C(=O)NCC2CCCCC2)CC1 (centres undefined) | active: 4.65 µM | 
COc1ccc(CC(=O)NC2CCN(CC(=O)Nc3ccc4c(c3)OCCO4)CC2)cc1OC | inconclusive: 11.7 µM [inhibitor, partial curve, poor fit] | 
COc1cccc(/C=C2\NC(=O)NC2=O)c1O | active: 0.928 µM | 
Cc1ccc2cc(CN(CCCO)S(=O)(=O)c3cccc4nsnc34)c(=O)[nH]c2c1C | inconclusive: 0.329 µM [inhibitor, partial curve, poor fit] | 
CCOC(=O)C1CCN(C(=O)C2CCN(S(=O)(=O)c3cc(Cl)ccc3OCC)CC2)CC1 |  | inactive: -0.0963%
COC(=O)c1ccc2c(=O)n(Cc3ccc(C(=O)NC(C)C)cc3)c(=S)[nH]c2c1 |  | inactive: 44.8%
COc1ccc(CCn2c(=N)c(C(=O)NC3CCCC3)cc3c(=O)n4ccccc4nc32)cc1 | inconclusive: 1.47 µM [inhibitor, full curve, poor fit] | 
